No constants are given. Whether binding was seen depends on the method and setting. Binding seen in cells or lysates may run through a third protein. Some entries that bind do so weakly or less than the wild type.
Target: T1, DNA Polymerase η (human (endogenous in OVCAR3)) (UniProt Q9Y253)
T1 sequence: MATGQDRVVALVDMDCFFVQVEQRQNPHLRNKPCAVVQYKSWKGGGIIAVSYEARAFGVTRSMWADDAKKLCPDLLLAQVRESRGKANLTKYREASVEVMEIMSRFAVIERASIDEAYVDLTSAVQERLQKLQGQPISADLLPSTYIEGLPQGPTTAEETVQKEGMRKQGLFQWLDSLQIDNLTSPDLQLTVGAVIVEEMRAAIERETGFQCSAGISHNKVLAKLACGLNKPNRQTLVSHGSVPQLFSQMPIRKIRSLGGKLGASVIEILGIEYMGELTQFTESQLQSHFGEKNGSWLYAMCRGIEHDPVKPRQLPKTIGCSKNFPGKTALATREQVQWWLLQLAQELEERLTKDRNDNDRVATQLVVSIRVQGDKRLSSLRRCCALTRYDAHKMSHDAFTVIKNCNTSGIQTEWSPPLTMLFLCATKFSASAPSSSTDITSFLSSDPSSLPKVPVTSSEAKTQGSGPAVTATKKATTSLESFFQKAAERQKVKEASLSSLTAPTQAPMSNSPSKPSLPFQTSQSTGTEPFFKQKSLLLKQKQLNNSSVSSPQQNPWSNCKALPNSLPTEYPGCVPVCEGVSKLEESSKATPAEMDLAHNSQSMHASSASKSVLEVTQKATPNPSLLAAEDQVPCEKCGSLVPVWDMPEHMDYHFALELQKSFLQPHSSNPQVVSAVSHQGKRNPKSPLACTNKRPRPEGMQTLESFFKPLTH
Assay: co-IP; OVCAR3 whole cell lysate in RIPA buffer, pre-cleared with protein A agarose; Polη-specific antibody overnight at 4 °C, captured on protein A beads; western blot

Sequences of proteins named here, by UniProt entry; tags and fusion partners are left off.
UniProt Q9NS91: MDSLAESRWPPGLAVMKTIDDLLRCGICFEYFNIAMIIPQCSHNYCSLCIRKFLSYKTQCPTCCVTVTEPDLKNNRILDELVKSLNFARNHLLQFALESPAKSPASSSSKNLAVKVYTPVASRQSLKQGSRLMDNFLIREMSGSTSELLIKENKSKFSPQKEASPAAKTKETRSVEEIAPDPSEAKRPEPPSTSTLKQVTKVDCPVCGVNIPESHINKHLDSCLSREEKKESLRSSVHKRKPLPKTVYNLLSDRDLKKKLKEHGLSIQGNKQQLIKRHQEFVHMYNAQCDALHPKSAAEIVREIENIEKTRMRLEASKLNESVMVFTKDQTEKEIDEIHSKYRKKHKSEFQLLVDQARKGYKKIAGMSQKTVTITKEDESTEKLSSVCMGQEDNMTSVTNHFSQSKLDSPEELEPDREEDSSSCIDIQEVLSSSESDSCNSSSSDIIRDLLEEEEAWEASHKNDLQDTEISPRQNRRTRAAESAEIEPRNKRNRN

binding: binds
Substance: RAD18 (from UniProt Q9NS91 1-495)

Source: publication PMC11868536
